Experimental data published in article PMC5391209.
These are yes or no findings as the source states them, for the method shown. Binding seen in cells or lysates may run through a third protein. Some results given as binding are weak or reduced against the parent protein; the word gives no strength. Where a sequence is shown, tags or fusion partners need not be part of it.

By UniProt entry, the sequences of proteins in these tests, tags left out.
UniProt P42337: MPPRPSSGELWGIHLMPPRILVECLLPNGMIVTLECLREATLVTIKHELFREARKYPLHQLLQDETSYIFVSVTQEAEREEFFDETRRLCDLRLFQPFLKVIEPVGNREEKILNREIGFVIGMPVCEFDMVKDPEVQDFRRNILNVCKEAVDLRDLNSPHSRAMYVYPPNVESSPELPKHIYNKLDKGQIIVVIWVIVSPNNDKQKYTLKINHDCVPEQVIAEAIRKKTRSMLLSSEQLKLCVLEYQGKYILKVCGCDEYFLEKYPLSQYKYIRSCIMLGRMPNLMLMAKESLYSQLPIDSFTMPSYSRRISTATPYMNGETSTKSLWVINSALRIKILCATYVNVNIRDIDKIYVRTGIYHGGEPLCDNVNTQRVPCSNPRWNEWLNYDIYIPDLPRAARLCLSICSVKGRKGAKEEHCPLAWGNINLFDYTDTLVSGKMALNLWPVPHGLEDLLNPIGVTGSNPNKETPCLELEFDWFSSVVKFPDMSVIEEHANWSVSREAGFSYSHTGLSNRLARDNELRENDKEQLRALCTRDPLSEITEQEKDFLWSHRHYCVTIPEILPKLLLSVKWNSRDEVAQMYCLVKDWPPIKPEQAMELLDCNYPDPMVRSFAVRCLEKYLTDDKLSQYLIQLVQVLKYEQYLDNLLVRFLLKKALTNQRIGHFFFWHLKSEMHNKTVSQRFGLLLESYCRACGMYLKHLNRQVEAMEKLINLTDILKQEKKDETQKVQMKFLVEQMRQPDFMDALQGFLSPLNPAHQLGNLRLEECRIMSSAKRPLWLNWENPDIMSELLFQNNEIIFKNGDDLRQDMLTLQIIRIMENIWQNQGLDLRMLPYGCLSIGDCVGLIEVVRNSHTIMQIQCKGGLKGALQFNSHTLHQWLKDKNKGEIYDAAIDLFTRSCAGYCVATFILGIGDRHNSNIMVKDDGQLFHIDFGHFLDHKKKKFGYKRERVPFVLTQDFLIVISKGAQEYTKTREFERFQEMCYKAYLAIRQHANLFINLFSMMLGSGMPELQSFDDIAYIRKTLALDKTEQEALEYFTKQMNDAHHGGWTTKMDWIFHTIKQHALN

Target: T1, FLAG-tagged R-Ras2 4KR (human) (UniProt P62070)
T1 sequence: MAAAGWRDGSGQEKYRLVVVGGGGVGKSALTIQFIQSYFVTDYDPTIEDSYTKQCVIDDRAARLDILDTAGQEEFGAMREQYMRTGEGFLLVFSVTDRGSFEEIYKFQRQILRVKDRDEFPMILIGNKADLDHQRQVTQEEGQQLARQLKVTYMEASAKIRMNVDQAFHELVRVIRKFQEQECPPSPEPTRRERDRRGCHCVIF
Assay: co-IP; FLAG-tagged R-Ras2 WT or 4KR overexpressed in Sirt6 WT and KO MEFs, R-Ras2 immunoprecipitated, p110α examined by blot

binding: binds
Substance: p110α, one isoform of the catalytic subunit of PI3K (from UniProt P42337 1-1068) (enzyme)
